Primary screen of a compound library

The values are deposited in ChEMBL (CHEMBL3988442, “University of Dundee, Small-Polar-MMV Screening Library” (2021)).

Results are given as percent effect. The record does not define 0% and 100%; most values in the screen are far below 50% and negative numbers occur (in some assays of this library far below -100). The compounds are a random part of those screened. Two or more numbers in one place are separate tests of the same structure; such repeats can differ widely.

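Growth of Mycobacterium tuberculosis over 4 days (cholesterol / DPPC medium with tyloxapol); the read-out is not stated. Compounds at 50 µM. The record gives no direction; compounds that gave an IC50 in retests scored well above the rest, so higher reads as more growth inhibition. About 69,000 compounds were tested under these conditions; 0.54% (about 370) showed 50% or more at least once.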

Compound	percent effect
COc1ccc(CCNC2CCCN(Cc3noc(C)n3)C2)cc1 (centres undefined)	-16.62
COc1ccnc(N2Cc3cnc(C(C)(C)C)nc3C2)n1	2.972
COc1ccc(C(=O)CNC(=O)c2nc(Cl)sc2C(C)C)cc1	-30.16
O=C(OC1CCC1)c1ncccc1OCC(F)(F)F	14.54
Oc1ccc(-c2c(-c3ccccc3)ncn2C2CCNC2)cc1 (centres undefined)	-12.77
CCN(CC)C(=O)CCNC(=O)c1c[nH]c2ccc(OC)cc12	-11.03
O=C(O)CNC(=O)Cc1csc(-c2ccccc2F)n1	7.551
Cn1cc(CN2CCc3ncnc(N4CCOCC4)c3CC2)cn1.O=C(O)C(F)(F)F.O=C(O)C(F)(F)F.O=C(O)C(F)(F)F	12.39
[H][C@]12C[C@@H](C(=O)NCCOC)CO[C@@]1([H])CCN(Cc1cccs1)C2	-9.042
Cc1nc2c(c(NC3CC3)n1)CCN(C(=O)CCO)CC2.O=C(O)C(F)(F)F	1.737
N#Cc1cnc2cc(F)cc(F)c2c1NC1CCN(CC(N)=O)CC1	-21.82
[H][C@@]12CCN(C(=O)N(C)C)[C@]1([H])CCC(=O)N2CCOC	3.406
C1CC(CN2CCOCC3(CCN(C4CCOCC4)C3)C2)CCO1 (centres undefined)	3.241
Cc1ncnc(NC(CC(C)(C)C)c2cccnc2)c1C (centres undefined)	-7.595
Cc1nc(C2CCNCC2)cc(N2CCOc3ccccc3C2)n1	-13.25
CCc1nc(CN2CCCC(N(C)CCn3cccn3)C2)no1 (centres undefined)	-26.66
O=C(CCc1cccs1)N1CCC(N2CCNC2=O)CC1	3.444
COCCOc1ncccc1C(=O)N1CCCC(n2ccnc2C)C1 (centres undefined)	-8.399
O=C(NCCN1CCCC(CO)C1)c1ccc2sccc2c1 (centres undefined)	2.468
O=C1c2ncccc2C(CCO)N1Cc1ccccc1 (centres undefined)	-2.062
O=C(c1cc2c(s1)CCC2)N1CCCC1c1noc(C2CC2)n1 (centres undefined)	-5.665
COc1c(CNCCNC(=O)c2cccs2)c(C)nn1C	-20.25
COCC(=O)N1CCc2c(nnn2C)C1COCCN1CCCC1.O=C(O)C(F)(F)F (centres undefined)	2.456
CN1CCC/C1=N\S(=O)(=O)c1ccc(NC(=O)CCc2cccs2)cc1	-4.988
O=C(O)C(F)(F)F.O=C1Nc2ccccc2C12CCN(Cc1nccs1)CC2	13.05
Cc1cc(C)c2[nH]c(=O)c(CN3CCC(O)(CN(C)C)C3)cc2c1 (centres undefined)	10.37
COCC(O)CN(C)c1cc(C(F)(F)F)nc(-c2cccnc2)n1 (centres undefined)	-7.046 and -3.283
CS(=O)(=O)N1CCN(c2ccc3ccc(C(=O)NC4CC4)cn23)CC1	-24.28
CCc1ncc(C(=O)N2CCOCC2c2c(C)n[nH]c2C)s1 (centres undefined)	11
Cc1noc(C)c1CCCNC(=O)Nc1ccc2c(c1)CC(=O)N2	3.4
CN(CCc1ccccn1)C(=O)CCC1CCCN(c2ccncc2)C1 (centres undefined)	-15.56
COc1cccc2c1OCC(C(=O)N1CCSCC1)C2 (centres undefined)	-17.14 and 2.384
O=C(CCc1ccsc1)N1CCCC(N2CCNC2=O)C1 (centres undefined)	15.71
CCOc1cc(C(=O)N2CCN(C)CC2)cc2occc12	-16.54
CN(C)c1cc(C2CCCN(S(=O)(=O)C3CCCC3)C2)ccn1 (centres undefined)	7.071
COc1ccc(-c2n[nH]cc2CN(C)Cc2nonc2C)c(F)c1	4.056
c1ccc2oc(CCCN3CCc4cncnc4C3)nc2c1	10.62
COc1cccc(OCCNCc2c(C)nn(C)c2N(C)C)c1	0.2603
C=Cc1cccc(CN2CCCn3nc(CNS(C)(=O)=O)cc3C2)c1	-20.4
CCN1CCN(c2ncc(-c3cc(C)no3)c(-c3ccc(C)s3)n2)CC1	0.5154
Fc1cccc(CN2CCC(c3noc(-c4ccncc4)n3)CC2)c1F	20.57
CC(C)N1CCCC1c1cc(CCO)[nH]n1 (centres undefined)	6.794 and 3.826
Cc1ccc(Oc2ncccc2CNC2CCCCC2)cn1	8.594
CCCN1CC2(CCN(c3ccc(C(C)=O)cn3)CC2)CC1C(=O)O (centres undefined)	-16.98
CSCC[C@H](N)c1nnc(SCc2cc(C)ccc2C)o1.Cl	6.612
CCN1Cc2nc(OC)c(CNC(=O)C3CCCN(C)C3)cc2C1=O (centres undefined)	-30.65 and -17.91
CCN(CC(=O)Nc1cc(Cl)ccc1C)C(=O)c1ccncc1	-12.44
CCOCC(=O)N1C[C@@H](O)[C@H](N2CCN(c3ccccc3)CC2)C1	4.475 and 7.778
O=C(Nc1ccc(-c2cscn2)cc1)C1CCCN(Cc2ccon2)C1 (centres undefined)	-12.1
COC(=O)Cn1c(C)cc(=O)n2nc(-c3cccs3)nc12	-11.99
CCn1c(CN(C)C)nnc1C1CCN(Cc2ccc(C)s2)CC1	-9.204 and -1.915
Cc1cnccc1NCCn1ccnc1C1CCCCC1	-1.68
CN(C)C(=O)COCc1cncc2c1CCN(Cc1cnn(C)c1)C2.O=C(O)C(F)(F)F.O=C(O)C(F)(F)F	-9.476
COC(=O)CCn1ccc(=O)c2ccccc21	11.48
COc1ccc(NC(=O)C2OC(c3cccs3)=NN2C(C)=O)cc1 (centres undefined)	-3.114
Cc1ccc2nc(CNCCCN3CCCC3=O)cc(O)c2c1	-12.4
O=C(O)C(F)(F)F.[H][C@@]12CCN(c3ccc(C)nn3)C[C@]1([H])O[C@@H](C(=O)NCc1ccco1)C2	-16.48

The last 7 entries again:

{"compound": "CCn1c(CN(C)C)nnc1C1CCN(Cc2ccc(C)s2)CC1", "percent effect": "-9.204 and -1.915"}
{"compound": "Cc1cnccc1NCCn1ccnc1C1CCCCC1", "percent effect": -1.68}
{"compound": "CN(C)C(=O)COCc1cncc2c1CCN(Cc1cnn(C)c1)C2.O=C(O)C(F)(F)F.O=C(O)C(F)(F)F", "percent effect": -9.476}
{"compound": "COC(=O)CCn1ccc(=O)c2ccccc21", "percent effect": 11.48}
{"compound": "COc1ccc(NC(=O)C2OC(c3cccs3)=NN2C(C)=O)cc1", "stereo": "centres undefined", "percent effect": -3.114}
{"compound": "Cc1ccc2nc(CNCCCN3CCCC3=O)cc(O)c2c1", "percent effect": -12.4}
{"compound": "O=C(O)C(F)(F)F.[H][C@@]12CCN(c3ccc(C)nn3)C[C@]1([H])O[C@@H](C(=O)NCc1ccco1)C2", "percent effect": -16.48}